Results of single-concentration screens

Data taken from ChEMBL document CHEMBL3988442, “University of Dundee, Small-Polar-MMV Screening Library” (2021).

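Cell assay of Leishmania donovani living inside macrophages; the read-out is not stated. Tested at 30 µM. The record gives no direction; compounds that gave an IC50 in retests scored well above the rest, so higher reads as stronger inhibition. About 69,000 compounds were tested under these conditions; 1.5% (about 1,000) showed 50% or more at least once.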

Each number is a percent effect as filed. The record does not define 0% and 100%; most values in the screen are far below 50% and negative numbers occur (in some assays of this library far below -100). This is an unselected part of the compounds tested. Two or more numbers in one place are separate tests of the same structure; such repeats can differ widely.

SMILES,effect
COCCC1(CO)CCCN(Cc2ccc(C#N)cc2)C1 (centres undefined),-19.71%
CCS(=O)(=O)N1CCC(NC(=O)c2cc(C(C)C)ccc2O)CC1,11.27%
CN(CCC#N)C(=O)CN1CCCN(Cc2noc(C3CC3)n2)CC1,25.2%
[H][C@@]12CCN(Cc3nc(C)cs3)C[C@@]1([H])O[C@@H](c1nnc(C)[nH]1)C2,2.735%
CS(=O)(=O)NCc1ncn2c1CN(C(=O)C1CCCO1)CCC2 (centres undefined),-2.046%
Cc1cc(C2CCCN2Cc2ccc(S(=O)(=O)N3CCCC3)o2)on1 (centres undefined),-50.89%
Cc1cc(C(=O)CN2CCN(c3nccs3)CC2)c(C)n1C1CC1,11.78%
CCc1ccc(CCNc2ncnc3c2CCN(C(=O)C2CC2)C3)cc1,32.18%
CNC(=O)CCCNCc1c(C)nn(C)c1N(C)C,2.101%
CC(C)c1nc(C2CCCN(C(=O)CN(C)S(C)(=O)=O)C2)no1 (centres undefined),17.42%
COCC(=O)N1CCCC2(CCN(CCN3CCCC3)CC2)C1.O=C(O)C(F)(F)F.O=C(O)C(F)(F)F,8.43%
Cl.Cn1cc(CN(Cc2ccccc2)Cc2ccccn2)cn1,-4.159%
CCn1ccnc1CN1CCN(CC(=O)NC(C)(C#N)C2CC2)CC1 (centres undefined),-11.93%
CNc1nc(CNC(=O)Nc2ccc(SC)c(F)c2)cs1,26.46%
COc1cccc(CN2CCN(C(=O)CN3CCOCC3)CC2)n1,4.07%
c1ccc(-c2n[nH]c(CCNc3nnc(C4CCC4)o3)n2)cc1,10.1%
CCc1noc(CS(=O)(=O)C(C)c2nc(C3CC3)no2)n1 (centres undefined),30.28%
COc1ccncc1NCc1cscn1,-8.431%
Cc1cnn(CC2CCCN2c2ncnc3ccccc23)c1 (centres undefined),32.5%
O=C(O)C(F)(F)F.[H][C@]12CCN(C(=O)NCc3ccccc3)C[C@@]1([H])OCCN(C(C)C)C2,17.12%
CC(C)N1CCC(c2ccnc3c(C(=O)N4CCOCC4)ncn23)CC1,22.5%
Cc1nc(C)c(C)c(N2CCC3(CCN(C)C3)C2)n1 (centres undefined),-0.899%
CS(=O)(=O)N1CCC2(CCN(Cc3nccs3)CC2)CC1.O=C(O)C(F)(F)F,24.13%
CC(C)CN1CCC(NC(=O)c2ccc(F)cc2I)CC1,41.4%
COCC(=O)NCc1cc(=O)n2c(n1)CN(Cc1ccco1)CCC2,3.891%
Cc1ccc([C@@H]2CN(C(=O)c3ccccc3C)C[C@H]2N(C)C)cc1,-6.199%
[H][C@]12CC(COCc3cccnc3)C[C@]1([H])N(Cc1cccnc1)CCO2 (some centres undefined),1.519%
Cc1ncnc2c1CCN(C(=O)c1cccn1C)CC2,40.64%
[H][C@@]12CCN[C@]1([H])CN(S(=O)(=O)c1ccc(C)cc1)C2,10.79%
CC(C)[C@H]1CN(c2ccncc2)C[C@@H]1NS(=O)(=O)N(C)C,5.198%
Cc1nc(COC(=O)c2cccnc2C)no1,42.97%
O=C(O)C(F)(F)F.[H][C@@]12CN(CC3CCOC3)CCC[C@]1(C(=O)O)CN(c1ncccn1)C2 (some centres undefined),22.4%
O=C(O)CCC(=O)Nc1nn(Cc2ccc(F)cc2)cc1Cl,-1.725%
O=C(O)C1(Cc2cc(-c3ccc(F)cc3F)no2)CCOCC1,-14.07%
CCn1ccnc1CN1CCCN(C(=O)c2cccn2C)CC1,17.56%
CS(=O)(=O)CCNC(=O)NCCc1cc2ccccc2o1,39.56%
Cc1cc(C(=O)N2CCCC2c2nc(C)cc(O)n2)on1 (centres undefined),6.846%
CN1CCN(C(=O)c2cccn2C)c2ccccc2C1,-6.146%
O=C(CN1C(=O)CCC1=O)N1Cc2cncnc2C1,10.33% and 28.85%
COc1ccccc1CC(=O)N1CCC(NCc2ccncc2)CC1,29.83%
Cc1cccc(CN2CCOC3(COCCN(CCN(C)C)C3)C2)n1.O=C(O)C(F)(F)F.O=C(O)C(F)(F)F.O=C(O)C(F)(F)F (centres undefined),-5.046%
COCCCS(=O)(=O)N1CCN(C(C)(C)CO)CC1,9.307%
COC(=O)Cn1cccc(S(=O)(=O)N2CCC(C)CC2)c1=O,-4.537%
O=C(CCc1cc(O)no1)N1CCCC(COc2ccc(F)cc2)C1 (centres undefined),4.55%
COc1ccc(-c2cccc3c2OC(CN)C3)cc1F (centres undefined),82.3%

Some entries from above, unchanged:

| SMILES | effect |
|---|---|
| `O=C(O)C(F)(F)F.[H][C@]12CCN(C(=O)NCc3ccccc3)C[C@@]1([H])OCCN(C(C)C)C2` | 17.12% |
| `CC(C)c1nc(C2CCCN(C(=O)CN(C)S(C)(=O)=O)C2)no1` (centres undefined) | 17.42% |
| `COc1cccc(CN2CCN(C(=O)CN3CCOCC3)CC2)n1` | 4.07% |
| `Cc1ncnc2c1CCN(C(=O)c1cccn1C)CC2` | 40.64% |